Experimental data taken from patent US8507537B2, “Trifluromethoxyphenyl-substituted tetramic acid derivatives pesticides and/or herbicides” (Bayer CropScience AG, priority 2006, dated 2013).
Some results were stated once for a whole list of compounds, not compound by compound.

Assays:
Assay type in all cases: in vivo
[1] = tested on: Lolium multiflorum; assay: Herbicidal pre-emergence action; settings: 320 g/ha of a.i.
[2] = tested on: Setaria viridis; assay: Herbicidal pre-emergence action; settings: 320 g/ha of a.i.
[3] = tested on: caterpillars of the armyworm (Spodoptera frugiperda); assay: Spodoptera frugiperda test (SPODFR spray treatment); settings: application rate of 500 g/ha of a.i. after 7 d
[4] = tested on: Echinochloa crus-galli; assay: Herbicidal post-emergence action; settings: 80 g/ha of a.i.
[5] = tested on: Lolium multiflorum; assay: Herbicidal post-emergence action; settings: 80 g/ha of a.i.
[6] = tested on: Setaria viridis; assay: Herbicidal post-emergence action; settings: 80 g/ha of a.i.

## COc1cc(OC(F)(F)F)cc(Cl)c1C1=C(O)C2CCCN2C1=O (racemic) [I-a-25]
[1]
  activity (herbicidal effect): ≥ 80%
[2]
  activity (herbicidal effect): ≥ 80%

## COC1CCC2(CC1)NC(=O)C(c1ccccc1OC(F)(F)F)=C2O (single isomer, unassigned) [I-a-2]
[1]
  activity (herbicidal effect): ≥ 80%
[2]
  activity (herbicidal effect): ≥ 80%

## CCOC1CCC2(CC1)NC(=O)C(c1cc(OC(F)(F)F)ccc1Br)=C2O (single isomer, unassigned) [I-a-6]
[3]
  efficacy: ≥ 80%

## CCCCOC1CCCC2(C1)NC(=O)C(c1c(Cl)cc(OC(F)(F)F)cc1OC)=C2O (single isomer, unassigned) [I-a-24]
[4]
  activity (herbicidal effect): ≥ 70%
[5]
  activity (herbicidal effect): ≥ 70%
[6]
  activity (herbicidal effect): ≥ 70%

## COC1CCC2(CC1)NC(=O)C(c1ccc(Br)cc1OC(F)(F)F)=C2O (single isomer, unassigned) [I-a-46]
[1]
  activity (herbicidal effect): ≥ 80%
[2]
  activity (herbicidal effect): ≥ 80%
[4]
  activity (herbicidal effect): ≥ 70%
[5]
  activity (herbicidal effect): ≥ 70%
[6]
  activity (herbicidal effect): ≥ 70%

## COC1CCC2(C1)NC(=O)C(c1c(C)cc(C)cc1OC(F)(F)F)=C2O (single isomer, unassigned) [I-a-50]
[1]
  activity (herbicidal effect): ≥ 80%
[2]
  activity (herbicidal effect): ≥ 80%
[4]
  activity (herbicidal effect): ≥ 70%
[5]
  activity (herbicidal effect): ≥ 70%
[6]
  activity (herbicidal effect): ≥ 70%

## COC1CCC2(CC1)NC(=O)C(c1c(Br)cc(Cl)cc1OC(F)(F)F)=C2O (single isomer, unassigned) [I-a-58]
[4]
  activity (herbicidal effect): ≥ 70%
[5]
  activity (herbicidal effect): ≥ 70%
[6]
  activity (herbicidal effect): ≥ 70%

## COC1CCC2(CC1)NC(=O)C(c1c(Br)cc(Br)cc1OC(F)(F)F)=C2O (single isomer, unassigned) [I-a-59]
[1]
  activity (herbicidal effect): ≥ 80%
[2]
  activity (herbicidal effect): ≥ 80%
[4]
  activity (herbicidal effect): ≥ 70%
[5]
  activity (herbicidal effect): ≥ 70%
[6]
  activity (herbicidal effect): ≥ 70%

## CCCOC1CCCC2(C1)NC(=O)C(c1c(Cl)cc(C)cc1OC(F)(F)F)=C2O (single isomer, unassigned) [I-a-64]
[1]
  activity (herbicidal effect): ≥ 80%
[2]
  activity (herbicidal effect): ≥ 80%
[4]
  activity (herbicidal effect): ≥ 70%
[5]
  activity (herbicidal effect): ≥ 70%
[6]
  activity (herbicidal effect): ≥ 70%

## CCOC1CCCC2(C1)NC(=O)C(c1c(OC)cc(Cl)cc1OC(F)(F)F)=C2O (single isomer, unassigned) [I-a-65]
[1]
  activity (herbicidal effect): ≥ 80%
[2]
  activity (herbicidal effect): ≥ 80%
[4]
  activity (herbicidal effect): ≥ 70%
[5]
  activity (herbicidal effect): ≥ 70%
[6]
  activity (herbicidal effect): ≥ 70%

## CCOC1CCCC2(C1)NC(=O)C(c1c(C)cc(Cl)cc1OC(F)(F)F)=C2O (single isomer, unassigned) [I-a-68]
[1]
  activity (herbicidal effect): ≥ 80%
[2]
  activity (herbicidal effect): ≥ 80%
[4]
  activity (herbicidal effect): ≥ 70%
[5]
  activity (herbicidal effect): ≥ 70%
[6]
  activity (herbicidal effect): ≥ 70%

## CCCCOC1CCCC2(C1)NC(=O)C(c1c(Cl)cc(OC(F)(F)F)cc1OC)=C2OC(=O)C(C)C (single isomer, unassigned) [I-b-15]
[1]
  activity (herbicidal effect): ≥ 80%
[2]
  activity (herbicidal effect): ≥ 80%

## CCOC(=O)OC1=C(c2cc(OC(F)(F)F)ccc2Br)C(=O)NC12CCC(OC)CC2 (single isomer, unassigned) [I-c-2]
[3]
  efficacy: ≥ 80%

## CCOC(=O)OC1=C(c2cc(OC(F)(F)F)ccc2Br)C(=O)NC12CCC(COC)CC2 (single isomer, unassigned) [I-c-4]
[3]
  efficacy: ≥ 80%

## CCOC(=O)OC1=C(c2c(Cl)cc(OC(F)(F)F)cc2OC)C(=O)NC12CCC(OC)CC2 (single isomer, unassigned) [I-c-18]
[1]
  activity (herbicidal effect): ≥ 80%
[2]
  activity (herbicidal effect): ≥ 80%

## CCOC(=O)OC1=C(c2c(C)cc(OC(F)(F)F)cc2C)C(=O)NC12CCC(OC)CC2 (single isomer, unassigned) [I-c-22]
[1]
  activity (herbicidal effect): ≥ 80%
[2]
  activity (herbicidal effect): ≥ 80%

## CCOC(=O)OC1=C(c2c(C)cc(C)cc2OC(F)(F)F)C(=O)NC12CCC(OC)CC2 (single isomer, unassigned) [I-c-29]
[1]
  activity (herbicidal effect): ≥ 80%
[2]
  activity (herbicidal effect): ≥ 80%

## CCOC(=O)OC1=C(c2c(C)cc(C)cc2OC(F)(F)F)C(=O)NC12CCCC(OCC)C2 (single isomer, unassigned) [I-c-30]
[1]
  activity (herbicidal effect): ≥ 80%
[2]
  activity (herbicidal effect): ≥ 80%

## CCOC(=O)OC1=C(c2c(CC)cc(Cl)cc2OC(F)(F)F)C(=O)NC12CCC(OC)CC2 (single isomer, unassigned) [I-c-32]
[1]
  activity (herbicidal effect): ≥ 80%
[2]
  activity (herbicidal effect): ≥ 80%
[4]
  activity (herbicidal effect): ≥ 70%
[5]
  activity (herbicidal effect): ≥ 70%
[6]
  activity (herbicidal effect): ≥ 70%

## CCOC(=O)OC1=C(c2c(CC)cc(Cl)cc2OC(F)(F)F)C(=O)NC12CCC(COC)CC2 (single isomer, unassigned) [I-c-33]
[1]
  activity (herbicidal effect): ≥ 80%
[2]
  activity (herbicidal effect): ≥ 80%

## CCOC(=O)OC1=C(c2c(C)cc(Cl)cc2OC(F)(F)F)C(=O)NC12CCCC(OCC)C2 (single isomer, unassigned) [I-c-34]
[1]
  activity (herbicidal effect): ≥ 80%
[2]
  activity (herbicidal effect): ≥ 80%

## CCOC(=O)OC1=C(c2c(OC)cc(Cl)cc2OC(F)(F)F)C(=O)NC12CCCC(OCC)C2 (single isomer, unassigned) [I-c-35]
[1]
  activity (herbicidal effect): ≥ 80%
[2]
  activity (herbicidal effect): ≥ 80%

## CCOC(=O)OC1=C(c2c(Cl)cc(C)cc2OC(F)(F)F)C(=O)NC12CCCC(OCC)C2 (single isomer, unassigned) [I-c-37]
[1]
  activity (herbicidal effect): ≥ 80%
[2]
  activity (herbicidal effect): ≥ 80%
[4]
  activity (herbicidal effect): ≥ 70%
[5]
  activity (herbicidal effect): ≥ 70%
[6]
  activity (herbicidal effect): ≥ 70%
